B1: SC16.106 (antibody, V domains shown)
VH: QVQLKQSGPGLVAPSQSLFITCTVSGFSLTSYEINWVRQPPGKGLEWLGVIWTGGSTNYNSALISRLSISKDNSKSLVFLKMNSLQTDDTAIYYCVRGVYAMDYWGQGTSVTVSS
VL: DIKMTQSPSSMYASLGERVTITCKASQDINSYLSWFQQKPGKSPKTLIYRANRLVDGVPSRFSGSGSGQDYSLTISSLEYEDMGIYYCLQYDEFPFTFGSGTKLEIK
B2: SC16.103 (antibody, V domains shown)
VH: QVTLKESGPGILKPSQTLSLTCSFSGFSLSTSGMGIGWIRQPSGKGLEWLAHIWWDDDKYYNPSLKSQLTISKDSSRNQVFLKITSVDTADTATYYCARRGTAYYFDYWGQGTTLTVSS
VL: DIVLTQSPASLAVSLGQRATISCRASKSVSTSGYSYMHWYQQKPGQPPKLLIYLASNLESGVPARFSGSGSGTDFTLNIHPVEEEDAATYYCQHSRELPLTFGAGTKLELK
B3: SC16.81 (antibody, V domains shown)
VH: QVQLKESGPVLVAPSQSLSITCTVSGFSLTSYGVHWVRQPPGKGLEWLGVIWAGGSTNYNSALMSRLSISKDNSKSQVFLKMNSLQTDDTAMYYCAKQGNFYAMDYWGQGTSVTVSS
VL: QIVLTQSPAIMSASLGERVTLTCTASSSVSSSYLHWYQQKPGSSPKLWIYSTSNLASGVPTRFSGSGSGTSYSLRISSMEAEDAATYYCHQYNRSPLTFGAGTKLELK
B4: SC16.123 (antibody, V domains shown)
VH: QVALKESGPGILQPSQTLSLTCSFSGFSLSTSGMGVGWIRQPSGKGLEWLAHIWWDDVKRYNPALKSRLTISKDTSSSQVFLKIASVDTADTATYYCARMEDYGSSSYFDFWGHGTTLTVSS
VL: B3 VL with L21M, T61A, R75T, A81T, N93H, L97F, A101S, L107I
B5: SC16.101 (antibody, V domains shown)
VH: QVTLKESGPGILQPSQTLSLTCSFSGFSLSTSGMGVGWIRQPSGKGLEWLAHIWWDDVKRYNPALKSRLTISKDASSSQVFLKIASVDTAETATYYCAHILDRAYYFDYWGQGTTLTVTS
VL: B3 VL with L21M, T61A, G67E, R75T, S78N, N93H, L97F, A101S, L107I
B6: SC16.10 (antibody, V domains shown)
VH: B5 VH with P14S, A64V, A75T, E91D, H99R, I100L, L101V, R103D, A104L, T119S
VL: B3 VL with L21M, R75T, N93H, L97F, A101S, L107I
B7: SC16.117 (antibody, V domains shown)
VH: B3 VH with V10G, S31N, S56I, K71E, K97R, Q98N, G99L, N100G, F101P
VL: DIQMNQSPSSLSASLGDTITITCHVSQNINVWLSWYQQKPGNIPKLLIQKASNLHTGVPSRFSGSGSGTGFTLTISSLQPEDIATYYCQQGQSYPFTFGSGTKLEIK
B8: SC16.110 (antibody, V domains shown)
VH: EVQLQQSGPGLVRTGASVKISCKASGYSFTGYYMHWVKQSHGKSLEWIGYISCYNGATTYNQNFKGKATFIVDTSSSTAYMQFNSLTSEDSAVYYCARSDGGHAMDYWGQGTSVTVSS
VL: NIVMTQTPKFLLVSAGDRVTITCKASQSVSNDVAWYQQKPGQSPKLLIYYASNRYTGVPDRFTGSGYGTDFTFTISTVQAEDLAVYFCQQDYSSPPTFGGGTKLEIK
B9: SC16.84 (antibody, V domains shown)
VH: EVQLQQSGPELVKPGASMKISCKASGYSFTGYTMNWVKQSHGKNLEWIGLINPYNGGTTYNQKFKGKATLTVDKSSSTAYMELLSLTSEDSAVYYCALGYYGNYRRYFDVWGAGTTVTVSS
VL: DIQMTQSPSSLSASLGGKVTITCKASQDIKKYIAWYQHKPGKGPRLLIHYTSTLEPGIPSRFSGSGSGRDYSFSISNLEPEDIATYYCLQYDILWTFGGGTKLEIK
B10: SC16.107 (antibody, V domains shown)
VH: EVQLQQSGPELVKPGASVKMSCKASGYTFTNYVMHWVKQKPGQGLEWIGYINPYNDGTKYNEKFKGKATLTSDKSSTTAYMALSSLTSEDSAVYYCAVAYYSNWGFAYWGQGTLVTVSA
VL: DIVMTQSHKFMSTSVGDRVSITCKASQDVNTAVGWYQQKPGQSPKLLIYSASYRYTGVPDRFTGSGSGTDFTFTISSVQAEDLAVYYCQQHYSSPYTFGGGTKVEIK
B11: SC16.105 (antibody, V domains shown)
VH: QVQLQQPGAELVKPGASVKLSCKASGYTFTSYWMHWVKQRPGQGLEWIGVINPSNGRTNYNEKFKSKATLTVDKSSSTAYMQLSSLTSEDSAVYYCARRRELGTLYAMDYWGQGTSVTVSS
VL: DIVMTQSHKFMSTSVGDRVSITCKASQDVGTAVAWYQQKPGQSPKLLIYWASIRHTGVPDRFTGSGSGTDFTLTISNVQSEDLADYFCQQYSSYPLTFGAGTKLELK
B12: SC16.126 (antibody, V domains shown)
VH: QVQMKESGPGLVAPSQSLSITCTVSGSSLTNYGVHWVRQPPGKGLEWLGVIWAGGSTNYNSALMSRLSISKDNSKSQVFLKMNSLQTDDTAMYYCARDWEGWFAYWGQGTLVTVSA
VL: B7 VL with V25A, Q49Y
B13: SC16.104 (antibody, V domains shown)
VH: QVQLKESGPDLVQPSQTLSLTCTVSGFSLTFYGVHWVRQPPGKGLEWVGTMGWDDKKYYNSALKSRLSISRDTSKNQVFLKLSSLQTEDTAMYYCTRGGTGFDYWGQGTTLTVSS
VL: QIVLSQSPAILSASPGEKVTMTCRASSSVSYIHWYRQKPGSSPKPWIYATSNLASGVPARFSGSGSGTSYSLTISRVEAEDAATYYCQQWSSNPPTFGAGTKLELK
B14: SC16.114 (antibody, V domains shown)
VH: EVQLQQSGAELVKPGASVKLSCTASGFNIKDTYIHWVKQRPEQGLEWIGRIDPANGNTKYDPKFQGKATITPDTSSNTAYLQLSSLTSEDTAVYYCARSWRNYGSSFWYFDVWGAGTTVTVSS
VL: B13 VL with I32M, R36Q, P95Y, A99G, L105I
B15: SC16.111 (antibody, V domains shown)
VH: EVQLQQSGPELEKPGASVKISCKASGYSFTGYNMNWVKQSNGKSLEWIGNIDPYYGGSSYKQKFEGKATLTVDKSSSTAYMQLKSLTSEDSAVYYCARGGSNFFDYWGQGTTLTVSS
VL: DIQMTQSPASLAASVGETVTITCRASENIYYSLAWYQQKQGKSPQLLIYNANSLEDGVPSRFSGSGSGTQYSMKINSMQPEDTATYFCKQTYDVPLTFGAGTKLELK
B16: SC16.121 (antibody, V domains shown)
VH: EVQLVESGGGLVQPKGSLKLSCAASGFTFNTYAMNWVRQAPGKGLEWVARIRIKSNNYATYYADSVKDRFTISRDDSQNMLYLQMNNLKTEDTAVYYCVRQGYSYDWGPWFAYWGQGTLVTVSA
VL: QIVLTQSPAIMSASPGEKVTITCSASSSVSYMHWFQQKPGTSPKLWIYSTSNLASGVPARFSGSGSGTSYSLTISRMEAEDAATYYCQQRSSYPPTFGGGTKLEIK
B17: SC16.116 (antibody, V domains shown)
VH: QVQLKQSGPGRVQPSQSLSITCTVSGFSLTSNGVHWVRQSPGKGLEWLGVLWSGGSTDYNAAFISRLSISKDNYKSQVFFKMNSLQANDTAIYYCARNNNRYGAMDYWGQGTSVTVSS
VL: DIVMTQSPSSLTVTAGEKVTMSCTSSQSLLTSGNQKNYLTWYQQKPGQPPKLLIYWASTRESGVPDRFTGSGSGTDFTLTISSLQAEDLAVYYCQNDYSLTFGAGTKLELK
B18: SC16.124 (antibody, V domains shown)
VH: EVQLQQSGPELVKPGASVKMSCKASGYTFTSYVMHWVKQKPGQGLEWIGYINPYNDGTKYNEKFKGKATLTSDKSSSTAYMELSSLTSEDSAVYYCARGALYYGNYLGYFDVWGAGTTVTVSS
VL: DIQMTQSPASQSASLGESVTITCLASQTIGTWLAWYQQKPGKSPQLLISAATSLADGVPSRFSGSGSGTKFSFKISSLQAEDFVSYYCQQLYSTPWTFGGGTKLEIK
B19: SC16.129 (antibody, V domains shown)
VH: QVQLKESGPGLVAPSQSLSITCTVSGFSLTDYGVSWIRQPPGKGLEWLGVIWGGGSTYYNSALKSRLSISKDNSKSQVFLELNSLQTDDTAIYYCAKHYGHYAAYWGQGTLVTVSA
VL: B18 VL with S49Y, W96Y
B20: SC16.8 (antibody, V domains shown)
VH: QAQLQQSGAELVRPGTSVKVSCKASGYAFTNYLIEWVKQRPGQGLEWIGVINPGTGGTNYNENFKGKATLTADKSSSTAYMQLSSLTSDDSAVYFCARSPYDYHEGAMDYWGQGTSVTVSS
VL: EIQMTQSPSSMSASLGDRITITCQATQDIVKNLNWYQQKPGKPPSFLIYYAIELAEGVPSRFSGSGSGSDYSLTISNLESEDFADYYCLQFYEFPFTFGAGTKLELK
B21: SC16.109 (antibody, V domains shown)
VH: QIQLVQSGPELKKPGETVKISCKASGYTFTNYGMNWVKQAPGKGLKWMGWINTYTGEPAYADDFKGRFAFSLETSASAAYLQINNLKNEDTATFFCANMRPTRGFAYWGQGTLGTVSA
VL: QIVLTQSPAIMSASPGEKVTMTCSASSSVSYMYWYQQKPGSSPRLLIYDTSNLASGVPVRFSGSGSGTSFSLTISRMEAEDTATYYCQEWSGNPLTFGDGTKLELK

Chains of the proteins cited; added tags and fusions are not shown. Lines headed by an entry give the natural chain unless they say otherwise; changes in a name come on top.
UniProt Q9NYJ7: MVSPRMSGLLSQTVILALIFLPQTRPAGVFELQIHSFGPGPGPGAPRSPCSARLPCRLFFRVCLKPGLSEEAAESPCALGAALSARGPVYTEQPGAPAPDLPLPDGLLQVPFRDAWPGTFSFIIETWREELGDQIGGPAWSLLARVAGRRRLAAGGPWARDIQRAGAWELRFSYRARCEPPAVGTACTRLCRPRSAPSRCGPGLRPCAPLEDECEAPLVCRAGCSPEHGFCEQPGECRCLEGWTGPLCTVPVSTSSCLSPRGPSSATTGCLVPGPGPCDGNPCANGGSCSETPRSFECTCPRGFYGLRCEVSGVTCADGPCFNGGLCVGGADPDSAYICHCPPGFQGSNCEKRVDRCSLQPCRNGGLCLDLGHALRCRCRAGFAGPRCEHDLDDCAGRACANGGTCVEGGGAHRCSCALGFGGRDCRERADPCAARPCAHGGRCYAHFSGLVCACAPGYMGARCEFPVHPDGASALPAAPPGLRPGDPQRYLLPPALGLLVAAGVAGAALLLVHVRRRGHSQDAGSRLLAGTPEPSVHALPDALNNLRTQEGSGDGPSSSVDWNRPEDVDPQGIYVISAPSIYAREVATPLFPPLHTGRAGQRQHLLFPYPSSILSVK

Our source for the binding values is US20180243435A1 (AbbVie / Abbott, published 2018).

Substitutions are numbered along the chain they refer to. No constants are given. Whether binding was seen depends on the method and setting. Some binding calls cover weakened binding; strength is not graded here.

The target of the test is human DLL3 (human) (UniProt Q9NYJ7). Description: hybridoma screening: ELISA on immobilized DLL3 or flow cytometry on HEK-293T cells overexpressing hDLL3.
With B1, the binding entry is on record as “binds”.

For B2, the binding result is “binds”.

As to B3, the binding result is on record as “binds”.

Regarding B4, the binding result is recorded as “binds”.

Regarding B5, the binding entry is “binds”.

B6: the binding entry is “binds”.

For the molecule B7, the binding result is recorded as “binds”.

As to B8, the binding result is reported as “binds”.

B9: the binding result is on record as “binds”.

Turning to B10, the binding result is listed as “binds”.

On to B11, for which the binding result is “binds”.

On to B12, for which the binding entry is reported as “binds”.

Take B13: the binding result was “binds”.

For the molecule B14, the binding entry is given as “binds”.

On to B15, for which the binding result is “binds”.

Consider B16, for which the binding result was “binds”.

Take B17: the binding result is “binds”.

Regarding B18, the binding entry is given as “binds”.

With B19, the binding entry is “binds”.

For B20, the binding entry is given as “binds”.

Turning to B21, the binding entry is “binds”.
